PubChem BioAssay AID602196 – INSERM – 2012
Test: 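Modifiers of cisplatin sensitivity in A549 cells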. Cell system: human A549 lung cancer cells. Knock-down reagent: siRNA pair against human genes. Time to read-out: 48 h transfection before cisplatin; time from cisplatin to read-out not stated. Conditions: cisplatin at a dose killing half of control-siRNA cells; exact dose and duration not given. Measured: 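Cisplatin cell death as a shift from the 50% death seen with control siRNA; siRNAs toxic or growth-blocking alone scored 0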. Direction: two-siRNA summed score (-2 to +2): higher = both siRNAs protect from cisplatin killing; -2 means both sensitise. Call rule: 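Each siRNA scores 0 if harmful alone by LDH or WST-1, otherwise +1 if it reduces and -1 if it increases cisplatin killing; a gene is active when both siRNAs agree (sum +2 or -2)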. Calls: active = both siRNAs shift cisplatin killing the same way; inactive = no consistent shift, or siRNA harmful alone.
In all, the deposit lists about 23,000 reagents; shown is an unselected part. 455 of them (2%) count as active. 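Active includes both protection and sensitisation; some change values fall well beyond the stated -50 to +50 range.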 Not all columns of the deposit are shown. Not stated in the record: the amount of reagent.

What did the screen give for UTF1?
two-siRNA summed score (-2 to +2): 1; Outcome: inactive

For OR52P2P, what does the deposit list?
two-siRNA summed score (-2 to +2): 0; Outcome: inactive

What did the screen give for LIX1L?
two-siRNA summed score (-2 to +2): 0; Outcome: inactive

With SEC16A, what does the deposit list?
two-siRNA summed score (-2 to +2): 1; Outcome: inactive

For LOC123855, what does the deposit list?
two-siRNA summed score (-2 to +2): 0; Outcome: inactive

How did the screen score HACE1?
two-siRNA summed score (-2 to +2): 0; Outcome: inactive

What is on record for LOC401125?
two-siRNA summed score (-2 to +2): 0; Outcome: inactive

With TET1, what does the deposit list?
two-siRNA summed score (-2 to +2): 0; Outcome: inactive

How did the screen score LOC389695?
two-siRNA summed score (-2 to +2): 0; Outcome: inactive

Which result is listed for PIGA?
two-siRNA summed score (-2 to +2): 1; Outcome: inactive

Which result is listed for FAM151AP1?
two-siRNA summed score (-2 to +2): 0; Outcome: inactive

What is on record for TREH?
two-siRNA summed score (-2 to +2): -1; Outcome: inactive
